Measurements taken from PubChem BioAssay AID1665 (Sanford-Burnham Center for Chemical Genomics, 2009).
The other results are listed elsewhere or left out.

Assay: beta-catenin nuclear localization change in HeLa – imaging, HeLa cells, immunofluorescence, high-content, primary screen (AID 1665)
Conditions: HeLa beta-catenin nuclear translocation, measured here: cell count, cytotoxicity flag, at 5 µM

Compound | cell count
O=[N+]([O-])c1cc([N+](=O)[O-])c(Nc2nnnn2CCO)c([N+](=O)[O-])c1 | 1270 cells
CN(C)C1(CNC(=O)c2ccc(S(C)(=O)=O)cc2)CCCCC1 | 1080 cells
O=C(/C=C/c1ccccc1)OC1CN2CCC1CC2 (stereo not given) | 1020 cells
CC1CCC(C(C)C)C(OP(=O)(Nc2ccccn2)c2ccccc2)C1 (stereo not given) | 1000 cells
COc1cc(C2NCCC3(OCCO3)C2(C)C)cc(OC)c1OC.O=[N+]([O-])c1cc([N+](=O)[O-])c(O)c([N+](=O)[O-])c1 (stereo not given) | 1040 cells
CN(C(=O)Cc1ccc(Cl)c(Cl)c1)[C@@H]1CCCC[C@H]1N1CCCC1 | 1170 cells
CC(C)/C=N\N=C(\N)N[N+](=O)[O-] | 978 cells
Cc1nc2ccc3ccccc3c2s1.O=[N+]([O-])c1cc([N+](=O)[O-])c(O)c([N+](=O)[O-])c1 | 1110 cells
O=[As](O)(c1ccccc1Br)c1ccccc1Br | 1170 cells
CC(C)(C)C(=O)NC(Sc1ncccn1)C(Cl)(Cl)Cl (stereo not given) | 1110 cells
Clc1n[nH]nc1-c1nn[nH][15n]1 | 1400 cells
O=[N+]([O-])c1cc([N+](=O)[O-])c(-n2nnc3ccccc32)c([N+](=O)[O-])c1 | 911 cells
O=P1(Nc2ccccn2)COc2ccccc2OC1 | 1180 cells
CCOP(=O)(Nc1ccc(C)cn1)OCC | 1340 cells
CCOP(=O)(Nc1cccc2ccccc12)OCC | 519 cells
Nc1cccc2c([As](=O)(O)O)cccc12 | 1170 cells
Cc1ccc(NCCc2c([N+](=O)[O-])cc([N+](=O)[O-])cc2[N+](=O)[O-])cc1 | 1090 cells
CP(=O)(Nc1cccc(Br)c1)Oc1ccccc1 (stereo not given) | 1070 cells
CCCOP(=S)(Nc1nc(N)cc(=O)[nH]1)OCCC | 1400 cells
Cc1ccc(C)c(NP(C)(=O)Oc2ccccc2)c1 (stereo not given) | 769 cells
O=[As](O)(c1cccc(O)c1)c1cccc(O)c1 | 1240 cells
Cc1cccc(OCC(=O)OC2CN3CCC2CC3)c1 (stereo not given) | 1040 cells
CCOC(=O)c1ccc(NP(C)(=O)Oc2cc(C)cc(C)c2)cc1 (stereo not given) | 1030 cells
O=C(OC1CN2CCC1CC2)c1ccc(Cl)cc1 (stereo not given) | 1340 cells
COc1ccccc1OP(C)(=O)Nc1cccc(Br)c1 (stereo not given) | 1270 cells
COc1cc(C(=O)NCC2(N3CCOCC3)CCCCC2)cc(Cl)c1OC(C)C | 1140 cells
O=[As](O)(O)c1cccnc1 | 1340 cells
CN(C(=O)Cc1ccccc1)[C@@H]1CC[C@]2(CCCO2)C[C@H]1N1CCCC1 | 1140 cells
CCOP1(=S)c2c(C)nn(CCC#N)c2N=C(c2ccc(F)cc2)N1C (stereo not given) | 1160 cells
CC1=NCCc2c1[nH]c1ccccc21.O=[N+]([O-])c1cc([N+](=O)[O-])c(O)c([N+](=O)[O-])c1 | 838 cells
